Measurements from article PMC11982375.

Sequences of proteins named here, by UniProt entry; tags and fusion partners are left off.
UniProt Q86Y07: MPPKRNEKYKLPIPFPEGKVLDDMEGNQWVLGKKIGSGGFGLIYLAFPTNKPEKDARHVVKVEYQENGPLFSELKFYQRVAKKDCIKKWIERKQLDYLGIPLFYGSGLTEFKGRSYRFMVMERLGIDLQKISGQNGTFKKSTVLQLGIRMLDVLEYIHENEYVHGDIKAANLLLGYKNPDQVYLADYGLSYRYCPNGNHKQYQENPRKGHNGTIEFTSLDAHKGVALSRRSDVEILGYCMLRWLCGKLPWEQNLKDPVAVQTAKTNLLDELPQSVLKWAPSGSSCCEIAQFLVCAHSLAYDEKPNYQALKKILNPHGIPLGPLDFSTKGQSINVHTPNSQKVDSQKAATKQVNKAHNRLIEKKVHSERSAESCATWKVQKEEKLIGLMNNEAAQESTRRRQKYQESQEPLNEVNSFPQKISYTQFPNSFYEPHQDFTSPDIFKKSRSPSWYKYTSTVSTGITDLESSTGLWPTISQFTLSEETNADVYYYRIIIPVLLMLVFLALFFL
UniProt Q13283: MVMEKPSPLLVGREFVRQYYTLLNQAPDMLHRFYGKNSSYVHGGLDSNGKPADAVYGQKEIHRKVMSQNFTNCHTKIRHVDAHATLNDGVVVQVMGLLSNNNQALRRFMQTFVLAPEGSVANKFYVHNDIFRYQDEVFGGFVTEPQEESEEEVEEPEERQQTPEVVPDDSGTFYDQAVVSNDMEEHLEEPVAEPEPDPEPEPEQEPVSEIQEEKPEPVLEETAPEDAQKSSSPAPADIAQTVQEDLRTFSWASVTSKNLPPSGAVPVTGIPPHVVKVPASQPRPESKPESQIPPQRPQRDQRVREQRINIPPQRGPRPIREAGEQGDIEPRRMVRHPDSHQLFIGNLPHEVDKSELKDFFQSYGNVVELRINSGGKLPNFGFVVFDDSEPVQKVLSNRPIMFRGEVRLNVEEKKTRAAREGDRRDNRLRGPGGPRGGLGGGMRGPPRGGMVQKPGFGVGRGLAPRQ

Target: Flag-VRK2 (human) (UniProt Q86Y07)
Assay: affinity purification with mass spectrometry; immunoprecipitation of Flag-VRK2 with Flag antibody followed by mass spectrometry analysis; cells not given

In the case of “G3BP1 (found by mass spectrometry in the Flag-VRK2 immunoprecipitate) (from UniProt Q13283 1-466)”, the binding was “binds”.

Results are given in words; binding and its absence hold for the method and conditions named. In cells and extracts the contact can be indirect. Here binding means that the protein was enriched with, or labelled near, the bait; the list need not be complete.
